PubChem BioAssay AID1053208 | Peter MacCallum Cancer Centre, 2014
Shown is one part, drawn at random, of about 17,000 reagents. In the full data, 788 (4.7%) were called active. 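Calls rest on z-score classes alone; an extra cut-off of viability at most 70% of control was not applied to them.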 The numbers tell different reagents against one gene apart. Further read-outs or replicates are left out here. No sequences are given here.

Screen: 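Find knock-downs that sensitise mouse osteosarcoma cells to doxorubicin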 (primary screen)
Cell system: mouse osteosarcoma cells, early-passage culture from an engineered mouse model of fibroblastic bone tumour
Reagents: siRNA pool against mouse genes, 40 nM
Duration: about 120 h (48 h before drug, then 72 h with drug)
Treatment: doxorubicin 100 nM for 72 h, roughly 30-40% inhibitory dose
Measurement: 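Luminescent ATP signal taken as viability with or without 100 nM doxorubicin for 72 h; mean of two wells set against non-targeting siRNA and turned into robust z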
Direction: viability z-score with doxorubicin: higher = more viable cells under doxorubicin; viability z-score without drug: higher = more viable cells with knock-down alone
Active means: 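a pool counts as active when its viability z-score with doxorubicin is -2 or below and its z-score without drug lies between -2 and 2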

target | pool no. | combined z-score class | viability z-score with doxorubicin | viability z-score without drug | Outcome
Gucy1b1 | 1 | no change with or without drug | 0.45 | 0.17 | inactive
Pcdhb18 | 1 | high cell count with doxorubicin only | 2.59 | 0.84 | inactive
Smc5 | 1 | low cell count with doxorubicin only | -2.47 | -0.84 | active
B3galt6 | 1 | no change with or without drug | -0.45 | 0.84 | inactive
Amigo2 | 1 | no change with or without drug | 0.11 | 1.18 | inactive
Hdac2 | 1 | no change with or without drug | -1.46 | 1.52 | inactive
Bmp15 | 1 | no change with or without drug | 0.67 | -0.84 | inactive
4932415M13Rik | 1 | low cell count without drug only | -1.35 | -2.19 | inactive
Srsf1 | 1 | low cell count with doxorubicin only | -2.02 | -0.51 | active
Msra | 1 | no change with or without drug | 0.79 | -0.34 | inactive
Wdr83 | 1 | no change with or without drug | 0.45 | 1.18 | inactive
C1ra | 1 | no change with or without drug | 0.67 | 0.34 | inactive
Tead2 | 1 | no change with or without drug | -0.45 | -1.18 | inactive
Map3k5 | 1 | no change with or without drug | 0.9 | -0.51 | inactive
Tpte | 1 | no change with or without drug | -0.22 | 0.17 | inactive
Flot1 | 1 | no change with or without drug | -0.45 | 0.34 | inactive
Krtap4-2 | 1 | no change with or without drug | 0.11 | 1.52 | inactive
Gmnn | 1 | low cell count with doxorubicin only | -2.02 | -1.52 | active
Dnajb11 | 1 | no change with or without drug | 0 | 0.51 | inactive
Rap2b | 1 | no change with or without drug | 0.56 | -0.17 | inactive
Smurf2 | 1 | no change with or without drug | 0 | 0.17 | inactive
Sesn1 | 1 | no change with or without drug | 0.9 | 1.52 | inactive
Slc7a5 | 1 | no change with or without drug | 0.56 | -0.51 | inactive
Zfp395 | 1 | no change with or without drug | 0.67 | 0.84 | inactive
Slc7a15 | 1 | high cell count with doxorubicin only | 2.02 | 0.84 | inactive
Zfp532 | 1 | no change with or without drug | 1.01 | -0.34 | inactive
Mib2 | 1 | low cell count with doxorubicin only | -3.37 | 0 | active
Pla2r1 | 1 | no change with or without drug | 0.45 | 0.67 | inactive
Gpr18 | 1 | no change with or without drug | -0.56 | -0.84 | inactive
Chst4 | 1 | no change with or without drug | 0.56 | 0.84 | inactive
Crcp | 1 | no change with or without drug | 0.9 | 1.52 | inactive
Fchsd1 | 1 | no change with or without drug | 0 | -0.67 | inactive
Ormdl3 | 1 | no change with or without drug | -0.11 | -1.52 | inactive
Ctla2a | 1 | no change with or without drug | 0.45 | 0.34 | inactive
Or6z7 | 1 | no change with or without drug | -0.9 | -0.84 | inactive
Tmcc3 | 1 | no change with or without drug | 0.56 | 0.34 | inactive
Scgb2b26 | 1 | no change with or without drug | 0.56 | 0.84 | inactive
Scgb2b26 | 2 | no change with or without drug | 0 | 0.17 | inactive
Aen | 1 | no change with or without drug | -0.9 | -0.84 | inactive
Xpo6 | 1 | no change with or without drug | 1.69 | -1.01 | inactive
Mphosph10 | 1 | low cell count with and without drug | -3.37 | -5.23 | inactive
Or52d3 | 1 | no change with or without drug | 1.91 | 1.35 | inactive
Taf1 | 1 | no change with or without drug | -0.45 | -1.85 | inactive
Atp6v0c | 1 | no change with or without drug | 0.22 | -1.18 | inactive
Med20 | 1 | no change with or without drug | -1.35 | -0.84 | inactive
Uty | 1 | no change with or without drug | -1.8 | -0.51 | inactive
A030005K14Rik | 1 | no change with or without drug | 0.9 | 1.69 | inactive
Ap1s1 | 1 | high cell count without drug only | 1.46 | 3.88 | inactive
Daxx | 1 | no change with or without drug | 1.01 | 0.51 | inactive
Bysl | 1 | low cell count without drug only | -0.67 | -2.7 | inactive

An excerpt taken from the entries so far:
target | pool no. | combined z-score class | viability z-score with doxorubicin | viability z-score without drug | Outcome
Gmnn | 1 | low cell count with doxorubicin only | -2.02 | -1.52 | active
Dnajb11 | 1 | no change with or without drug | 0 | 0.51 | inactive
Rap2b | 1 | no change with or without drug | 0.56 | -0.17 | inactive
Smurf2 | 1 | no change with or without drug | 0 | 0.17 | inactive
Sesn1 | 1 | no change with or without drug | 0.9 | 1.52 | inactive
